Laboratory results as given in paper doi:10.1101/2021.06.15.448540.
Positions count from the first letter of the chain named. No constants are given. Whether binding was seen depends on the method and setting. Some binding calls cover weakened binding; strength is not graded here.

Key:
Test in all cases: MST
[1] = biological target: T1, FhuCB with FhuB T182 and T184 mutated to Ala (Escherichia coli) (UniProt P07821+P06972)
T1 sequence (chain, His-tag labeled with the red-tris-NTA 2nd generation dye (in the MST)) 1: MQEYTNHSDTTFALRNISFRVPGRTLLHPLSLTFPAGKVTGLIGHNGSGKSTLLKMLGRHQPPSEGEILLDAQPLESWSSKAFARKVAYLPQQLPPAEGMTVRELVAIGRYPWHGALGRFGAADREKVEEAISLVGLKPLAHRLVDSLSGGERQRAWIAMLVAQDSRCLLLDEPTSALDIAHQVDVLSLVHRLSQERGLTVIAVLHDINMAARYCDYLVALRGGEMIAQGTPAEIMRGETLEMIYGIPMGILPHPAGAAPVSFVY
T1 sequence (chain, His-tag labeled with the red-tris-NTA 2nd generation dye (in the MST)) 2: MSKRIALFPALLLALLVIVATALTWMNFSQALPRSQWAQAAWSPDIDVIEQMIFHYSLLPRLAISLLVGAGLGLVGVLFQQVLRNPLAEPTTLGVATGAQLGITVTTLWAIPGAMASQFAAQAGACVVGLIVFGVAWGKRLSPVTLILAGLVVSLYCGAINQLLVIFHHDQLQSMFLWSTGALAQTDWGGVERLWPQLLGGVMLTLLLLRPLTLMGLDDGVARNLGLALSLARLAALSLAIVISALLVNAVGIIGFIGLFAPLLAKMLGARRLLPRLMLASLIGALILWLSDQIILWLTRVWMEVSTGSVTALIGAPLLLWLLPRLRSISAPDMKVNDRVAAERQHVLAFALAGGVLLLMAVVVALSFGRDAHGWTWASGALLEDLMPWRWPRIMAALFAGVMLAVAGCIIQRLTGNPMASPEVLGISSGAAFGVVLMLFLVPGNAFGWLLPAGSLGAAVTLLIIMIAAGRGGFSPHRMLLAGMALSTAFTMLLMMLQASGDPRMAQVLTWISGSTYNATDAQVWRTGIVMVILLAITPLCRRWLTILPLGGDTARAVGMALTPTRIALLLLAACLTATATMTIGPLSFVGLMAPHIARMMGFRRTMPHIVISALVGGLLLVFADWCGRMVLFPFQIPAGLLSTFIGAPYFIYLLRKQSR

[2] = biological target: T2, FhuCB subcomplex (wild type; membrane subunit FhuB and ATPase FhuC) (Escherichia coli) (UniProt P07821+P06972)
T2 sequence (chain, His-tag labeled with the red-tris-NTA 2nd generation dye (in the MST)) 1: T1 sequence (chain, His-tag labeled with the red-tris-NTA 2nd generation dye (in the MST)) 1
T2 sequence (chain, His-tag labeled with the red-tris-NTA 2nd generation dye (in the MST)) 2: T1 sequence (chain, His-tag labeled with the red-tris-NTA 2nd generation dye (in the MST)) 2 with A182T, A184T

[3] = biological target: T3, FhuCB with FhuB Q507 and T510 mutated to Ala (Escherichia coli) (UniProt P07821+P06972)
T3 sequence (chain, His-tag labeled with the red-tris-NTA 2nd generation dye (in the MST)) 1: T1 sequence (chain, His-tag labeled with the red-tris-NTA 2nd generation dye (in the MST)) 1
T3 sequence (chain, His-tag labeled with the red-tris-NTA 2nd generation dye (in the MST)) 2: T1 sequence (chain, His-tag labeled with the red-tris-NTA 2nd generation dye (in the MST)) 2 with A182T, A184T, Q507A, T510A

Measured: binding

B1: FhuD (separately expressed periplasmic substrate-binding protein) (protein, UniProt P07822 31-296)
chain: AAIDPNRIVALEWLPVELLLALGIVPYGVADTINYRLWVSEPPLPDSVIDVGLRTEPNLELLTEMKPSFMVWSAGYGPSPEMLARIAPGRGFNFSDGKQPLAMARKSLTEMADLLNLQSAAETHLAQYEDFIRSMKPRFVKRGARPLLLTTLIDPRHMLVFGPNSLFQEILDEYGIPNAWQGETNFWGSTAVSIDRLAAYKDVDVLCFDHDNSKDMDALMATPLWQAMPFVRAGRFQRVPAVWFYGATLSAMHFVRVLDNAIGGKA
binds: all assays above
